Laboratory results: paper doi:10.1101/2022.01.20.477147
These are yes or no findings as the source states them, for the method shown. Binding seen in cells or lysates may run through a third protein. A yes stands for co-enrichment or nearness to the bait. Other partners may have been found.

How the values were obtained:
[1] = biological target: SARS-CoV-2 Nsp6, 2xStrep-tagged (SARS-CoV-2) (UniProt P0DTD1); assay: affinity purification with mass spectrometry
[2] = biological target: SARS-CoV-2 Nsp8, 2xStrep-tagged (SARS-CoV-2) (UniProt P0DTD1); assay: affinity purification with mass spectrometry

Question: How did the binding [1] turn out when “ATPase subunit ATP5A1 (from UniProt P25705 44-553)” was run?
Answer: The binding was “binds”.

Question: And the binding [2]?
Answer: The binding was “binds”.

Question: What does the source list for “ATPase subunit ATP5B (from UniProt P06576 48-529)”?
Answer: binding [1]: binds; binding [2]: binds
